# Counter-ions that a name gives are not always drawn. Some of the results follow. Single values are uncertain here, since repeats match poorly.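 Human kidney-derived cells stably carry a construct in which eight TEAD-binding elements drive luciferase, measured by luminescence in a drug-repurposing library screen. A hit is any compound whose signal exceeds the plate mean by more than five robust Z scores.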
# System: HEK293A TEAD-LUC reporter
# Test: TEAD-luciferase reporter activity (YAP activation), robust Z score vs plate; higher = stronger YAP/TEAD activation
# Details: 24 h
Compound,TEAD-luciferase reporter activity (compound concentration: 200 nM),TEAD-luciferase reporter activity (compound concentration: 2 uM),TEAD-luciferase reporter activity (compound concentration: 10 uM)
Cc1nc2[nH]c(=O)sc2cc1-c1ccncc1,inactive: 0.16,inactive: -0.597,inactive: -1.55
O=C(NCCCN1CCOCC1)c1ccc(Cl)cc1 [Eprobemide],inactive: -1.19,inactive: 2.13,inactive: 1.59
CCOC(=O)C1=CCCC[C@H]1S(=O)(=O)Nc1ccc(F)cc1Cl [Resatorvid],inactive: 0.714,inactive: -0.0449,inactive: 0.672
N[C@H]1CC[C@H](Nc2nc(NCc3cccc(I)c3)c3ncn(C4CCCC4)c3n2)CC1,inactive: -0.676,inactive: 4.46,inactive: 2.99
COc1cc(Nc2ncc(F)c(Nc3ccc4c(n3)NC(=O)C(C)(C)O4)n2)cc(OC)c1OC [Tamatinib besilate],,inactive: -2.69,
COc1cc(Nc2ncc(F)c(Nc3ccc4c(n3)NC(=O)C(C)(C)O4)n2)cc(OC)c1OC,inactive: 2.53,,inactive: -3.29
Cn1nc(-c2cnc3ccccc3c2)cc1C(=O)NCCN1CCOCC1,inactive: -0.832,inactive: -0.325,inactive: 1.05
CCOC(=O)C(=O)Nc1cccc(OC)c1C(N)=O,inactive: -0.331,inactive: -0.415,inactive: -0.355
O=C1c2ccccc2C(=O)C1c1ccc(Br)cc1,inactive: -0.716,inactive: 0.977,inactive: 3.02
COc1cc(OC)c(-c2cc3ccccc3[nH]2)cc1/C=C/C(=O)c1ccc(C(=O)O)cc1 [VCAM-1 antagonists],,inactive: 1.25,
"COc1cc(OC)c(-c2cc3ccccc3[nH]2)cc1/C=C/C(=O)c1ccc(C(=O)O)cc1 [VCAM-1 antagonists, AtheroGen]",inactive: 4.17,,inactive: 0.474
CC1(C)Oc2ccc(C#N)cc2[C@H](N(Cc2ncc[nH]2)c2ccc(Cl)cc2)[C@H]1O,inactive: -0.263,inactive: 2.06,inactive: -0.195
CN(CC(O)C(O)C(O)C(O)CO)C(=S)[S-] (stereo unspecified),inactive: -0.553,inactive: -0.807,inactive: 1.11
Cc1cc(-c2nnc(N)nc2-c2ccc(F)cc2)cc(Cl)n1,active: 7.89,inactive: -1.22,inactive: 0.766
C#CCNC(=O)[C@H]1N(C(=O)[C@@H](O)[C@H](Cc2ccccc2)NC(=O)c2cccc(O)c2C)CSC1(C)C,inactive: -0.116,inactive: -0.4,inactive: 0.461
Cc1nc2cccc(C(F)(F)F)c2c(=O)n1-c1ccc(OC2CCN(C3CCC3)CC2)cc1,inactive: -1.74,inactive: 0.528,inactive: 0.0504
CNC[C@@H]1CCn2cc(c3ccccc32)C2=C(C(=O)NC2=O)c2cn(c3ccccc23)CCO1,inactive: 0.458,inactive: 0.632,inactive: -0.672
Cc1oc(-c2ccccc2)nc1COc1ccc(CO/N=C(\CCC(=O)O)c2ccccc2)cc1,inactive: -0.431,inactive: -0.631,inactive: 2.82

Compound,TEAD-luciferase reporter activity (compound concentration: 200 nM),TEAD-luciferase reporter activity (compound concentration: 2 uM),TEAD-luciferase reporter activity (compound concentration: 10 uM)
Cc1cn([C@H]2O[C@@H](CO)[C@H](O)[C@H]2F)c(=O)[nH]c1=O,inactive: -0.297,inactive: 0.986,inactive: 2.19
CCCNC(=O)N1N=C(c2ccc(N)cc2)c2cc3c(cc2C1C)OCO3 (stereo unspecified),inactive: -0.953,inactive: -1.21,inactive: -0.479
CCOc1nc2cccc(C(=O)OCc3oc(=O)oc3C)c2n1Cc1ccc(-c2ccccc2-c2nc(=O)o[nH]2)cc1 [Azilsartan medoxomil potassium],inactive: -0.704,inactive: 0.501,inactive: 2
Cc1ccn(-c2ccc(C(=O)N3Cc4cccnc4Nc4ccccc43)c(C(F)(F)F)c2)n1,inactive: 2.39,inactive: -1.1,inactive: -1.37
CCN1C(=O)c2ccccc2C1C(CCN1CCC(c2ccccc2S(C)=O)CC1)c1ccc(Cl)c(Cl)c1 (stereo unspecified),inactive: -1.18,inactive: -0.309,inactive: 0.348
Cc1ccc(C(=O)N2CCC(C(=O)N3CCC(N4CCCC4=O)CC3)CC2)cc1,inactive: -0.185,,inactive: -0.297
CCC(C)(C)/N=C(/NC#N)N[C@@H]1c2cc(C#N)ccc2OC(C)(C)[C@H]1O,inactive: -0.475,inactive: -1.1,inactive: 1.59
COC(=O)N[C@H](C(=O)N1CCC[C@H]1c1ncc(-c2cc(F)c3c(c2)O[C@@H](c2cnc(C4CC4)s2)n2c-3cc3cc(-c4cnc([C@@H]5CCCN5C(=O)[C@@H](NC(=O)OC)C(C)C)[nH]4)ccc32)[nH]1)C(C)C,inactive: 0.255,inactive: 0.413,inactive: -0.0788
CCOc1cc2nc(N3CCOCC3)nc(N3CCC(n4c(=O)c5cc(C)ccc5n(C)c4=O)CC3)c2cc1OCC,inactive: -0.168,inactive: -1.01,inactive: 2.98
O=C1N[C@H](C(=O)O)CS1 [Procysteine],,inactive: 0.694,
"O=C1N[C@H](C(=O)O)CS1 [4-Thiazolidinecarboxylic acid, 2-oxo-, (R)-]",inactive: -0.613,,inactive: -0.223
CC(C)(C)C(=O)NC1CCN(c2nc3ncccc3o2)C1 (stereo unspecified),inactive: -1.17,,inactive: -0.659
Cc1[nH]cnc1CN1CCc2c(c3ccccc3n2C)C1=O [alosetron],,inactive: -0.458,
Cc1[nH]cnc1CN1CCc2c(c3ccccc3n2C)C1=O [Alosetron HCl],inactive: -1.14,,inactive: -1.08
N=C(N)c1ccc2[nH]c(-c3cc(CC(=O)N[C@@H](CC(=O)O)C(=O)O)cc(-c4cc(S(N)(=O)=O)ccc4O)c3O)nc2c1,inactive: -0.924,inactive: 0.363,inactive: -1.24
C=CCn1c(=O)c(C(=O)Nc2cccc(C)c2C)c(O)c2ccccc21,inactive: -0.734,inactive: 3.57,inactive: 1.62
O=C(O)CCCCCCCCCCCCCCCCI,inactive: 0.945,inactive: -0.296,inactive: -1.84

# As entered above:
# Under TEAD-luciferase reporter activity (compound concentration: 2 uM), CCCNC(=O)N1N=C(c2ccc(N)cc2)c2cc3c(cc2C1C)OCO3 (stereo unspecified) has inactive: -1.21
# Under TEAD-luciferase reporter activity (compound concentration: 2 uM), O=C(O)CCCCCCCCCCCCCCCCI has inactive: -0.296

# From the supplement of paper PMC10735217
